Laboratory results published in PMC9958327.
No constants are given. Whether binding was seen depends on the method and setting. In cells and extracts the contact can be indirect. Some entries that bind do so weakly or less than the wild type.

Biological target: EGF receptor (EGFR), endogenous (human (endogenous in PC-3 and DU-145)) (UniProt P00533)
Test: co-IP; endogenous co-IP from PC-3 (legend: PC-3 and DU-145) cell lysate; overnight with target antibody at 4 °C, protein A agarose beads, immunoblot; rabbit IgG as negative control

Substance: Neuropilin 1 (NRP1), endogenous (from UniProt O14786 22-923) (receptor)
- binding: binds
